Results reported in PMC4695059.
These are yes or no findings as the source states them, for the method shown. In cells and extracts the contact can be indirect. A yes stands for co-enrichment or nearness to the bait. Other partners may have been found.

Amino acid sequences for entries named in this document (tags omitted).
UniProt Q8IUF8: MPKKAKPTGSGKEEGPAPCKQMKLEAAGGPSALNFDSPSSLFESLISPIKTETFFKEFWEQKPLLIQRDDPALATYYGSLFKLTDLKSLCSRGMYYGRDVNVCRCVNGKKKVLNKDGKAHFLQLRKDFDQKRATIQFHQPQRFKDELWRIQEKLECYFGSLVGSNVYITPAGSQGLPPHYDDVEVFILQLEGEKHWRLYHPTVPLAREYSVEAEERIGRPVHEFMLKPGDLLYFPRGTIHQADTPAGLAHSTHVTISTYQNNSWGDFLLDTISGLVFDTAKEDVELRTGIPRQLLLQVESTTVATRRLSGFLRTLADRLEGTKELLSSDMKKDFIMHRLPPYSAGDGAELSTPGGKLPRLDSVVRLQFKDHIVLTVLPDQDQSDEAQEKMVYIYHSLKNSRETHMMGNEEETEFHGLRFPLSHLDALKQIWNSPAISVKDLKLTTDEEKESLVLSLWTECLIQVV
UniProt Q9HC52: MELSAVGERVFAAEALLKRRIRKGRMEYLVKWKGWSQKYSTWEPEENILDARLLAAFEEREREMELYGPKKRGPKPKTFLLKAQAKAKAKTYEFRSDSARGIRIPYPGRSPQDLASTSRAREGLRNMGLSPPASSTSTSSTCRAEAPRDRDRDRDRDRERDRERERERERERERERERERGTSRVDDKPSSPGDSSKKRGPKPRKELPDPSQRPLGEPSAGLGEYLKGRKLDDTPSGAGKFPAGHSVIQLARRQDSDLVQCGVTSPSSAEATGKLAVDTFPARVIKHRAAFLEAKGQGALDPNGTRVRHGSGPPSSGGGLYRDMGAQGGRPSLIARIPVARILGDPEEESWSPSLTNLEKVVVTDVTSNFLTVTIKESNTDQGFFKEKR
UniProt P78527: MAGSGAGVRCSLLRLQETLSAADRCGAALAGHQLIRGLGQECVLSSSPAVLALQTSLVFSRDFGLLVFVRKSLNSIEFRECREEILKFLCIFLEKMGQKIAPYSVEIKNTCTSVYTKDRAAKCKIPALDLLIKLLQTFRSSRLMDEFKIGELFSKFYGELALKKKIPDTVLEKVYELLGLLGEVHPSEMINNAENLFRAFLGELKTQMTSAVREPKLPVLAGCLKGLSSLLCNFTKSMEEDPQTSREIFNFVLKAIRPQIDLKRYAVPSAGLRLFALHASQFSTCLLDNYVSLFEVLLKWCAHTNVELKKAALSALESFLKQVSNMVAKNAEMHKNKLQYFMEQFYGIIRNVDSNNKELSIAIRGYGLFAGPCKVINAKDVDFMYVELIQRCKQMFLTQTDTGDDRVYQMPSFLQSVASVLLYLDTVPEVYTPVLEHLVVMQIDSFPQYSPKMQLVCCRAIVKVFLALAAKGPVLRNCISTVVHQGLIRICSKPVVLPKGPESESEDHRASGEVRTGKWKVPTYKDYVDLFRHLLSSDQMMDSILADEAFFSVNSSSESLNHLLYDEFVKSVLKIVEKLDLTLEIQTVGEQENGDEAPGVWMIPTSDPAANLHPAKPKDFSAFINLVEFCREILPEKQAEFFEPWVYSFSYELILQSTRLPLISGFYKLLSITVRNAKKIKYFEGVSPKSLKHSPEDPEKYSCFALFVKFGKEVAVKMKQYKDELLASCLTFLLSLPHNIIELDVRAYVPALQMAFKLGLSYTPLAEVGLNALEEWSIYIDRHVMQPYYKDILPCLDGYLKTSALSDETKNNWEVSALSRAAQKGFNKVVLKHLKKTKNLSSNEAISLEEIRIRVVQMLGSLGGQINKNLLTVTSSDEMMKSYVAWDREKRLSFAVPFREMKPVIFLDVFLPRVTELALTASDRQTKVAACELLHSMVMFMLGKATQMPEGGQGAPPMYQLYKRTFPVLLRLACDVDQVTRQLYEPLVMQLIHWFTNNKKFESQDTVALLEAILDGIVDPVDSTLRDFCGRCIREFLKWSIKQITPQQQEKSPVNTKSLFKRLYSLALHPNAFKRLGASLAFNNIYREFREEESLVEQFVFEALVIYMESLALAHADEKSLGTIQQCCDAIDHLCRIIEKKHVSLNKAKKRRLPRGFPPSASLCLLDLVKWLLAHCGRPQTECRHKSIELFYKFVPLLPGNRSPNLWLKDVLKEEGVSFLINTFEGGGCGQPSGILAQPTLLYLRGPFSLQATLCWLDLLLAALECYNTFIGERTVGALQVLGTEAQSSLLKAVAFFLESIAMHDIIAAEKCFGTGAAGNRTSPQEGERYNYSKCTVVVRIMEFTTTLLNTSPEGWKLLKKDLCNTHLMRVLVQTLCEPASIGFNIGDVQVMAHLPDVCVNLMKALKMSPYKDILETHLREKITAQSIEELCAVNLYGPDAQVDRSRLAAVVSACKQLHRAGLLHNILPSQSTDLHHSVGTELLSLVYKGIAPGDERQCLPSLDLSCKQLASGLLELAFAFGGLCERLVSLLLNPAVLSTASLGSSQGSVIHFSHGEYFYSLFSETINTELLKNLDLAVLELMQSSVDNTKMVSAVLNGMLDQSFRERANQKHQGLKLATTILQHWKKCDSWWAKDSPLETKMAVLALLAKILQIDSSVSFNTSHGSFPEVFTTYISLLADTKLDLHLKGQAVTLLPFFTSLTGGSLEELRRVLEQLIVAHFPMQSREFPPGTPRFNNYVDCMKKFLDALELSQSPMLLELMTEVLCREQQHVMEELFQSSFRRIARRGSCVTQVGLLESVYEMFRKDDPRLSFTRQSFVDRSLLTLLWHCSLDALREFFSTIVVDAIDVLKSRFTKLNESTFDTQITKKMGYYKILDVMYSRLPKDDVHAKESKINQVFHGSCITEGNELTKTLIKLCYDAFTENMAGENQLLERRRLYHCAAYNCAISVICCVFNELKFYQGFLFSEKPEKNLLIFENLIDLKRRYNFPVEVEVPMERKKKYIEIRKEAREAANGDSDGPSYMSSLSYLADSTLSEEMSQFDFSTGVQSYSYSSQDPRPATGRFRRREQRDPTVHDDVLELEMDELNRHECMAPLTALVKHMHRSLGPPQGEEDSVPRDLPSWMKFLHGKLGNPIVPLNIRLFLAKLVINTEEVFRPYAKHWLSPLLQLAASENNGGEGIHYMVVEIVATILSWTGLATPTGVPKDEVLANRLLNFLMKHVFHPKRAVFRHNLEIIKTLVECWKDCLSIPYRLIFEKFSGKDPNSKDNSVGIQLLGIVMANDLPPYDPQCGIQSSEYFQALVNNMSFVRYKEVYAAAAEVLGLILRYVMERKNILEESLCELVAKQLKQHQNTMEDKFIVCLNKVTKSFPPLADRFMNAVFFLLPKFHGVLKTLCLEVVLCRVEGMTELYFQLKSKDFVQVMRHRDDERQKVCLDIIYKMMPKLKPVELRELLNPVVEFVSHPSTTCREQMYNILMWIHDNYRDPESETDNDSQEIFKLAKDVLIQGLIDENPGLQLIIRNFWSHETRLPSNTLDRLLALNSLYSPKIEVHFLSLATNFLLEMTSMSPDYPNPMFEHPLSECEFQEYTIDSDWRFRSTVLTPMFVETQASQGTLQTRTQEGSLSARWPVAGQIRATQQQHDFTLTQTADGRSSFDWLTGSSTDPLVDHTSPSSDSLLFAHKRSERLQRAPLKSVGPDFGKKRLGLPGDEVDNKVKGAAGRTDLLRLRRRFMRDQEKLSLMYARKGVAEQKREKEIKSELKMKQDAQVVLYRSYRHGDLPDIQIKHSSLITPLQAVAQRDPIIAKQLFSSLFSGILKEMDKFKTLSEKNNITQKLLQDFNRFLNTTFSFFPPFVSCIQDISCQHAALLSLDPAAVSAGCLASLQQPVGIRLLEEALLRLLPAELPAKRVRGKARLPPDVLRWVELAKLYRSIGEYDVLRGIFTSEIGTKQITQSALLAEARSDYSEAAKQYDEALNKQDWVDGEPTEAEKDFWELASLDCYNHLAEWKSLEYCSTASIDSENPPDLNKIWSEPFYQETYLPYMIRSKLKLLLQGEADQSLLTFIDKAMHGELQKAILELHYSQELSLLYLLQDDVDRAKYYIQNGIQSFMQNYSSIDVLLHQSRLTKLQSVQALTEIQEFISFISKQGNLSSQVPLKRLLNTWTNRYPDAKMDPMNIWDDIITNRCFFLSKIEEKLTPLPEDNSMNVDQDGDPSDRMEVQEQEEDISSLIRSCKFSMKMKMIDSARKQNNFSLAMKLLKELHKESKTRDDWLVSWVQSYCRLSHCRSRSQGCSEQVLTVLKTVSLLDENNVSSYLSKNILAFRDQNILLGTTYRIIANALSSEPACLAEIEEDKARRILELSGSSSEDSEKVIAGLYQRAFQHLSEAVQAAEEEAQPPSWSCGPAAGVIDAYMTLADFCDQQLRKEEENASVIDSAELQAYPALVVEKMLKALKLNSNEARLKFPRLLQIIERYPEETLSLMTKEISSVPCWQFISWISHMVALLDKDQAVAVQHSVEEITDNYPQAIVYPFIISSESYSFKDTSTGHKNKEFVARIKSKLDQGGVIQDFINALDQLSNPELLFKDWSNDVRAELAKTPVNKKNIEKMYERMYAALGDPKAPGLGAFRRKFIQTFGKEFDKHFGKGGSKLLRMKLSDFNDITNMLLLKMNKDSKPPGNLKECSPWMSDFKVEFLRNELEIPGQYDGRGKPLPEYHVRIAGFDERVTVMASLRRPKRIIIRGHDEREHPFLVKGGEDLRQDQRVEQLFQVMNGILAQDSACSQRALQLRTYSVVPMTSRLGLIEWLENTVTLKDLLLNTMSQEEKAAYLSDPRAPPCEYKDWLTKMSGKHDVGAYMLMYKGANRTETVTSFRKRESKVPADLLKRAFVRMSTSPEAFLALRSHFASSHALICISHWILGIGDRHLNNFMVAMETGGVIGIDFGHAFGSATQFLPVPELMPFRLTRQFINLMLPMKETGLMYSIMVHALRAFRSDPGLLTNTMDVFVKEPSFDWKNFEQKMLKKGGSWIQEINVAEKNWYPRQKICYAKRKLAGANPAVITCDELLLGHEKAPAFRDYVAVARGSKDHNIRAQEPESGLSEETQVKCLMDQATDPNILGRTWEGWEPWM
UniProt O95251: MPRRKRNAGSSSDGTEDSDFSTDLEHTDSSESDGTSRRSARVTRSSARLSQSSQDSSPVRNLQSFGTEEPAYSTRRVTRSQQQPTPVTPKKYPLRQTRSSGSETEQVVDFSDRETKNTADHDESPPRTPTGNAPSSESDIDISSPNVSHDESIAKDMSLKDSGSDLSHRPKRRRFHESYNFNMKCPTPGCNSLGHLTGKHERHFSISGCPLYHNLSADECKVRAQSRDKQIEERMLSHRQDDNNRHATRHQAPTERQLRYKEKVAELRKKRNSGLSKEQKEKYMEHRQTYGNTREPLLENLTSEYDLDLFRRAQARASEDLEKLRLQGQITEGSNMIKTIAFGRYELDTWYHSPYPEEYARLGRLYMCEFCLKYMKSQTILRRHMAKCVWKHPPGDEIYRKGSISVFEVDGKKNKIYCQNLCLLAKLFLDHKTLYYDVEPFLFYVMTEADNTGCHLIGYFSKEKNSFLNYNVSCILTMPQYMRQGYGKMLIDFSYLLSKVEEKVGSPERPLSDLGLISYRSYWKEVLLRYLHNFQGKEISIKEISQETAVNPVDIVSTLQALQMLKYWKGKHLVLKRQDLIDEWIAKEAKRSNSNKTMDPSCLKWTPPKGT
UniProt Q9BUH6: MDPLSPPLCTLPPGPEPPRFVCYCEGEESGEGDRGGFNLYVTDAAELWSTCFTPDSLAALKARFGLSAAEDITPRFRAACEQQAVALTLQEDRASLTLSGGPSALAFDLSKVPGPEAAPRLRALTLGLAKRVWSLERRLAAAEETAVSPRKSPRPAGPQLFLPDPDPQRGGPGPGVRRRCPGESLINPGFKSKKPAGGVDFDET
UniProt P35250: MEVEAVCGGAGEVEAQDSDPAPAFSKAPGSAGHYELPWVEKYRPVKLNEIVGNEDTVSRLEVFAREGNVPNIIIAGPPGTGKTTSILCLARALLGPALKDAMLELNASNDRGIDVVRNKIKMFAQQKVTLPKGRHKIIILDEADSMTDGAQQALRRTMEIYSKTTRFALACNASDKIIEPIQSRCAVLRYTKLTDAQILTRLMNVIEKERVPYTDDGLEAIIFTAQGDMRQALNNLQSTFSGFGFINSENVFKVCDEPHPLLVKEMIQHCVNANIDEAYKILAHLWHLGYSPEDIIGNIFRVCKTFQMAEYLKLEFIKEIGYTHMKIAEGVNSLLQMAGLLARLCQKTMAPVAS
UniProt Q09028: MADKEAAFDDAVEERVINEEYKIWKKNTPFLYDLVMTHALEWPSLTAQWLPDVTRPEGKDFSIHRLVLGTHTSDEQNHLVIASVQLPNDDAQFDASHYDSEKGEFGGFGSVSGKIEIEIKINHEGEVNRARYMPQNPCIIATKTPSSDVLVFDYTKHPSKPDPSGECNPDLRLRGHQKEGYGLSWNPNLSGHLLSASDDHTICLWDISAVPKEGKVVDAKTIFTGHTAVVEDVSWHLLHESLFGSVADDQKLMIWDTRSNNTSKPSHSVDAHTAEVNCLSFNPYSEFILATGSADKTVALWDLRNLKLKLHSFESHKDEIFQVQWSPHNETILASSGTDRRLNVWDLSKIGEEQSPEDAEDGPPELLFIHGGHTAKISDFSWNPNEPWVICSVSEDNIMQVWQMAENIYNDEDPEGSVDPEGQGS

Key:
[1] = molecular target: mineral dust-induced gene (mdig) protein (human (endogenous in A549, BEAS-2B, H929)) (UniProt Q8IUF8); assay: affinity purification with mass spectrometry; IP of endogenous mdig with rabbit polyclonal anti-mdig antibody on Protein A/G PLUS-Agarose from A549 lysate (1% Nonidet P-40, 137 mM NaCl, 20 mM Tris-HCl pH 7.5, 4°C overnight); three Coomassie bands of about 80, 60 and 45 kDa excised, against the same positions of the control IgG lane; Orbitrap Fusion MS/MS
[2] = molecular target: mineral dust-induced gene (mdig) protein (human (endogenous in A549, BEAS-2B, H929)) (UniProt Q8IUF8); assay: affinity purification with mass spectrometry; IP of endogenous mdig from A549 lysate against control IgG; whole gel lanes sliced; 3 independent experiments, two laboratories with different MS/MS systems (Orbitrap Fusion, Orbitrap XL); set of 207 proteins
[3] = molecular target: mineral dust-induced gene (mdig) protein (human (endogenous in A549, BEAS-2B, H929)) (UniProt Q8IUF8); assay: affinity purification with mass spectrometry; IP of endogenous mdig from BEAS-2B lysate against control IgG, proteomic profiling, compared with A549

| binding [1] | binding [2] | binding [3] | Molecule |
| --- | --- | --- | --- |
| binds |  |  | CBX8 (from UniProt Q9HC52 1-389) |
|  | binds |  | DNA-PK (PRKDC) (from UniProt P78527 1-4128) |
| binds |  |  | KAT7 (from UniProt O95251 1-611) |
|  | binds | binds | PAXX (from UniProt Q9BUH6 1-204) |
|  | binds |  | RFC2 (from UniProt P35250 1-354) |
|  | binds | binds | RIF1 (from UniProt Q5UIP0 1-2472) |
|  | binds | binds | Rho guanine nucleotide exchange factor 12 (ARHGEF12) (from UniProt Q9NZN5 1-1544) |
| binds | binds |  | TDRD3 (from UniProt Q9H7E2 1-651) |
| binds | binds |  | retinoblastoma-binding protein 4 (RBBP4) (from UniProt Q09028 1-425) |
|  | binds |  | RFC1 (protein, UniProt P35251 1-1148) MDIRKFFGVIPSGKKLVSETVKKNEKTKSDEETLKAKKGIKEIKVNSSRKEDDFKQKQPSKKKRIIYDSDSESEETLQVKNAKKPPEKLPVSSKPGKISRQDPVTYISETDEEDDFMCKKAASKSKENGRSTNSHLGTSNMKKNEENTKTKNKPLSPIKLTPTSVLDYFGTGSVQRSNKKMVASKRKELSQNTDESGLNDEAIAKQLQLDEDAELERQLHEDEEFARTLAMLDEEPKTKKARKDTEAGETFSSVQANLSKAEKHKYPHKVKTAQVSDERKSYSPRKQSKYESSKESQQHSKSSADKIGEVSSPKASSKLAIMKRKEESSYKEIEPVASKRKENAIKLKGETKTPKKTKSSPAKKESVSPEDSEKKRTNYQAYRSYLNREGPKALGSKEIPKGAENCLEGLIFVITGVLESIERDEAKSLIERYGGKVTGNVSKKTNYLVMGRDSGQSKSDKAAALGTKIIDEDGLLNLIRTMPGKKSKYEIAVETEMKKESKLERTPQKNVQGKRKISPSKKESESKKSRPTSKRDSLAKTIKKETDVFWKSLDFKEQVAEETSGDSKARNLADDSSENKVENLLWVDKYKPTSLKTIIGQQGDQSCANKLLRWLRNWQKSSSEDKKHAAKFGKFSGKDDGSSFKAALLSGPPGVGKTTTASLVCQELGYSYVELNASDTRSKSSLKAIVAESLNNTSIKGFYSNGAASSVSTKHALIMDEVDGMAGNEDRGGIQELIGLIKHTKIPIICMCNDRNHPKIRSLVHYCFDLRFQRPRVEQIKGAMMSIAFKEGLKIPPPAMNEIILGANQDIRQVLHNLSMWCARSKALTYDQAKADSHRAKKDIKMGPFDVARKVFAAGEETAHMSLVDKSDLFFHDYSIAPLFVQENYIHVKPVAAGGDMKKHLMLLSRAADSICDGDLVDSQIRSKQNWSLLPAQAIYASVLPGELMRGYMTQFPTFPSWLGKHSSTGKHDRIVQDLALHMSLRTYSSKRTVNMDYLSLLRDALVQPLTSQGVDGVQDVVALMDTYYLMKEDFENIMEISSWGGKPSPFSKLDPKVKAAFTRAYNKEAHLTPYSLQAIKASRHSTSPSLDSEYNEELNEDDSQSDEKDQDAIETDAMIKKKTKSSKPSKPEKDKEPRKGKGKSSKK |
| binds |  |  | CENPB (protein, UniProt P07199 1-599) MGPKRRQLTFREKSRIIQEVEENPDLRKGEIARRFNIPPSTLSTILKNKRAILASERKYGVASTCRKTNKLSPYDKLEGLLIAWFQQIRAAGLPVKGIILKEKALRIAEELGMDDFTASNGWLDRFRRRHGVVSCSGVARARARNAAPRTPAAPASPAAVPSEGSGGSTTGWRAREEQPPSVAEGYASQDVFSATETSLWYDFLPDQAAGLCGGDGRPRQATQRLSVLLCANADGSEKLPPLVAGKSAKPRAGQAGLPCDYTANSKGGVTTQALAKYLKALDTRMAAESRRVLLLAGRLAAQSLDTSGLRHVQLAFFPPGTVHPLERGVVQQVKGHYRQAMLLKAMAALEGQDPSGLQLGLTEALHFVAAAWQAVEPSDIAACFREAGFGGGPNATITTSLKSEGEEEEEEEEEEEEEEGEGEEEEEEGEEEEEEGGEGEELGEEEEVEEEGDVDSDEEEEEDEESSSEGLEAEDWAQGVVEAGGSFGAYGAQEEAQCPTLHFLEGGEDSDSDSEEEDDEEEDDEDEDDDDDEEDGDEVPVPSFGEAMAYFAMVKRYLTSFPIDDRVQSHILHLEHDLVHVTRKNHARQAGVRGLGHQS |
|  | binds |  | POLD3 (protein, UniProt Q15054 1-466) MADQLYLENIDEFVTDQNKIVTYKWLSYTLGVHVNQAKQMLYDYVERKRKENSGAQLHVTYLVSGSLIQNGHSCHKVAVVREDKLEAVKSKLAVTASIHVYSIQKAMLKDSGPLFNTDYDILKSNLQNCSKFSAIQCAAAVPRAPAESSSSSKKFEQSHLHMSSETQANNELTTNGHGPPASKQVSQQPKGIMGMFASKAAAKTQETNKETKTEAKEVTNASAAGNKAPGKGNMMSNFFGKAAMNKFKVNLDSEQAVKEEKIVEQPTVSVTEPKLATPAGLKKSSKKAEPVKVLQKEKKRGKRVALSDDETKETENMRKKRRRIKLPESDSSEDEVFPDSPGAYEAESPSPPPPPSPPLEPVPKTEPEPPSVKSSSGENKRKRKRVLKSKTYLDGEGCIVTEKVYESESCTDSEEELNMKTSSVHRPPAMTVKKEPREERKGPKKGTAALGKANRQVSITGFFQRK |
| binds |  |  | DDX18 (protein, UniProt Q9NVP1 1-670) MSHLPMKLLRKKIEKRNLKLRQRNLKFQGASNLTLSETQNGDVSEETMGSRKVKKSKQKPMNVGLSETQNGGMSQEAVGNIKVTKSPQKSTVLTNGEAAMQSSNSESKKKKKKKRKMVNDAEPDTKKAKTENKGKSEEESAETTKETENNVEKPDNDEDESEVPSLPLGLTGAFEDTSFASLCNLVNENTLKAIKEMGFTNMTEIQHKSIRPLLEGRDLLAAAKTGSGKTLAFLIPAVELIVKLRFMPRNGTGVLILSPTRELAMQTFGVLKELMTHHVHTYGLIMGGSNRSAEAQKLGNGINIIVATPGRLLDHMQNTPGFMYKNLQCLVIDEADRILDVGFEEELKQIIKLLPTRRQTMLFSATQTRKVEDLARISLKKEPLYVGVDDDKANATVDGLEQGYVVCPSEKRFLLLFTFLKKNRKKKLMVFFSSCMSVKYHYELLNYIDLPVLAIHGKQKQNKRTTTFFQFCNADSGTLLCTDVAARGLDIPEVDWIVQYDPPDDPKEYIHRVGRTARGLNGRGHALLILRPEELGFLRYLKQSKVPLSEFDFSWSKISDIQSQLEKLIEKNYFLHKSAQEAYKSYIRAYDSHSLKQIFNVNNLNLPQVALSFGFKVPPFVDLNVNSNEGKQKKRGGGGGFGYQKTKKVEKSKIFKHISKKSSDSRQFSH |
|  | binds |  | DDX1 (protein, UniProt Q92499 1-740) MAAFSEMGVMPEIAQAVEEMDWLLPTDIQAESIPLILGGGDVLMAAETGSGKTGAFSIPVIQIVYETLKDQQEGKKGKTTIKTGASVLNKWQMNPYDRGSAFAIGSDGLCCQSREVKEWHGCRATKGLMKGKHYYEVSCHDQGLCRVGWSTMQASLDLGTDKFGFGFGGTGKKSHNKQFDNYGEEFTMHDTIGCYLDIDKGHVKFSKNGKDLGLAFEIPPHMKNQALFPACVLKNAELKFNFGEEEFKFPPKDGFVALSKAPDGYIVKSQHSGNAQVTQTKFLPNAPKALIVEPSRELAEQTLNNIKQFKKYIDNPKLRELLIIGGVAARDQLSVLENGVDIVVGTPGRLDDLVSTGKLNLSQVRFLVLDEADGLLSQGYSDFINRMHNQIPQVTSDGKRLQVIVCSATLHSFDVKKLSEKIMHFPTWVDLKGEDSVPDTVHHVVVPVNPKTDRLWERLGKSHIRTDDVHAKDNTRPGANSPEMWSEAIKILKGEYAVRAIKEHKMDQAIIFCRTKIDCDNLEQYFIQQGGGPDKKGHQFSCVCLHGDRKPHERKQNLERFKKGDVRFLICTDVAARGIDIHGVPYVINVTLPDEKQNYVHRIGRVGRAERMGLAISLVATEKEKVWYHVCSSRGKGCYNTRLKEDGGCTIWYNEMQLLSEIEEHLNCTISQVEPDIKVPVDEFDGKVTYGQKRAAGGGSYKGHVDILAPTVQELAALEKEAQTSFLHLGYLPNQLFRTF |
